PubChem BioAssay AID1259424 – University of Nebraska Medical Center | 2018
Shown is one part, drawn at random, of about 14,000 reagents. 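Higher correlation or smaller distance means closer resemblance to KSR1 loss; control wells, including KSR1 knockdowns, recur on many plates.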 Not all columns of the deposit are shown. Reagent sequences are not shown. The record does not give: the time to read-out.

Test: 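Rank knockdowns across the genome by resemblance to the KSR1 depletion profile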 (primary screen)
Cell system: human HCT116 colon cancer cells
Knock-down reagent: siRNA pool against human genes, 50 nM
Measurement: 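Six signature mRNAs by branched-DNA multiplex assay, scaled to two housekeeping genes and non-targeting median, log2; matched to mean KSR1 knockdown profile by Pearson correlation and euclidean distance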
Reading the numbers: mean correlation with KSR1 profile: higher = expression change more like KSR1 knockdown

target | PubChem SID | mean correlation with KSR1 profile
SRI | SID363994271 | 0.169
POM121L1P | SID363998775 | 0.154
GTF3C4 | SID363998137 | -0.372
CHRM3 | SID363992035 | 0.366
ZMYND8 | SID363998293 | 0.872
CDC23 | SID363995626 | 0.845
EZR | SID363994491 | 0.633
FSCN1 | SID363994232 | -0.498
ZMAT5 | SID364001403 | -0.103
RAF1 | SID363994036 | 0.252
BLM | SID363991395 | 0.171
PABPC4 | SID363994881 | -0.33
POLR2B | SID363992222 | -0.304
REG1A | SID363994064 | 0.395
CCDC85B | SID363997612 | -0.255
URM1 | SID364003489 | 0.435
ZSWIM6 | SID364005083 | -0.479
EMP2 | SID363992688 | -0.68
PRSS3 | SID363993929 | 0.369
HIKESHI | SID364000087 | 0.0209

3 entries from above, ordered by “mean correlation with KSR1 profile”, highest first.
target | PubChem SID | mean correlation with KSR1 profile
URM1 | SID364003489 | 0.435
ZSWIM6 | SID364005083 | -0.479
EMP2 | SID363992688 | -0.68
